According to patent US20100010058A1, “Azoline Compounds for Combating Arthropod Pests” (BASF SE, priority 2006, published 2010):
Some of these results come from one statement about several compounds together.

Key:
Assay type in all cases: in vivo
[1] = test system: Cotton Aphid (Aphis gossypii); assay: Activity against Cotton Aphid (Aphis gossypii), cotton cotyledon dip test; details: at 300 ppm; cotton cotyledons dipped; mortality counts after 5 days
From the text: 2.2 Activity against Cotton Aphid (Aphis gossypii)
The active compounds were formulated in acetone/water (1:1) and 100 ppm Kinetic™ surfactant. Cotton plants at the cotyledon stage (one plant per pot) were infested by placing a heavily infested leaf from the main colony on top of each cotyledon. The aphids were allowed to transfer to the host plant overnight, and the leaf used to transfer the aphids was removed. The cotyledons were dipped in the test solution and allowed to dry. After 5 days, mortality counts were made.

[2] = test system: Green Peach Aphid (Myzus persicae); assay: Activity against Green Peach Aphid (Myzus persicae), pepper plant leaf dip test; details: at 300 ppm; pepper plant leaves dipped; after 5 days; in comparison with untreated controls
Protocol: 2.3. Activity against Green Peach Aphid (Myzus persicae)
Pepper plants in the 2nd leaf-pair stage (variety ‘California Wonder’) are infested with approximately 40 laboratory-reared aphids by placing infested leaf sections on top of the test plants. The leaf sections are removed after 24 hours. The leaves of the intact plants are dipped into gradient solutions of the test compound. Aphid mortality on the treated plants, relative to mortality on check plants, is determined after 5 days.

[3] = test system: Vetch Aphid (Megoura viciae); assay: Activity against Vetch Aphid (Megoura viciae), bean leaf disk microtiterplate test; details: at 2500 ppm; bean leaf disks sprayed, adult aphids, 6 days; compared to 0% mortality of untreated controls
Protocol: 2.1 Activity against Vetch Aphid (Megoura viciae)
The active compounds were formulated in DMSO/water (1:3). Bean leaf disks were placed into microtiterplates filled with 0.8% agar-agar and 2.5 ppm OPUS™. The leaf disks were sprayed with 2.5 μl of the test solution and 5 to 8 adult aphids were placed into the microtiterplates which were then closed and kept at 22-24° C. and 35-45% under fluorescent light for 6 days. Mortality was assessed on the basis of vital, reproduced aphids. Tests were replicated 2 times.

c1ccc(CN(NC2=NCCS2)c2ccccc2)cc1 [Example 1]
mortality [1]: over 50% | mortality [2]: over 50%

CCN(NC1=NCCS1)c1ccccc1 [Example 16]
mortality [1]: over 50%

CCCCN(NC1=NCCS1)c1ccccc1 [Example 17]
mortality [1]: over 50% | mortality [3]: over 75%

CCN(NC1=NCCS1)c1ccccc1C [Example 18]
mortality [1]: over 50% | mortality [2]: over 50%

Cc1cccc(N(Cc2cc(C(F)(F)F)cc(C(F)(F)F)c2)NC2=NCCS2)c1C [Example 21]
mortality [1]: over 50% | mortality [2]: over 50%

Cc1cc(C)cc(CN(NC2=NCCS2)c2ccccc2Br)c1 [Example 22]
mortality [1]: over 50% | mortality [3]: over 75%

Cc1cc(C)cc(C(=O)N(C2=NCCS2)N(C(=O)OC(C)(C)C)c2cccc(C)c2C)c1 [Example 42]
mortality [3]: over 75%

Cc1cccc(N(N=C2SCCN2Cc2ccccc2Cl)C(=O)OC(C)(C)C)c1C [Example 59]
mortality [1]: over 50% | mortality [2]: over 50%

Cc1cc(C)cc(CN(N=C2SCCN2C(=O)OC(C)(C)C)c2cccc(C)c2C)c1 [Example 64]
mortality [1]: over 50%
